Laboratory results reported in US11958828B1, “4,5-bis(4-bromophenyl)-1-hexyl-2-(3-pyridyl)-1H-imidazole as an antimicrobial compound” (KING FAISAL UNIVERSITY, priority 2023, dated 2024).
For at least one compound, name, drawing or mass did not settle the structure.

Columns and labels:
Type in all cases: cell-based
Escherichia coli = test: Antimicrobial testing by agar dilution, Escherichia coli; conditions: E. Coli
Procedure: (§1) The antimicrobial properties of the 4,5-bis(4-bromophenyl)-1-hexyl-2-(3-Pyridyl)-1H-imidazole (5) were studied by the method of agar dilution. Test solutions of each compound were prepared in concentration of 1% using dimethylformamide as a solvent then they are diluted in physiological solution to obtain the final experimental dilutions 1:100, 1:200, 1:400, 1:800. The effect of these substances were compared with furacillin in a controllable study. The testing microbes used were gram positive bacteria Staphylococcus aureus, gram negative bacteria Escherichia coli, Pseudomonas aeruginosa and Candida albicans fungi were taken. The experiments used for this survey were meat-pentonlu agar (EPA) for cultivation of bacteria and Saburo environment for fungi. Each experiment used 1 ml of test solution on each plate 500 min. Add 2 drops of emulsified with microbes feel. All experimental samples were taken from the agar after 10, 20, 40, 60 minutes in the environment on the basis of Patrk planted. Bacteria were cultivated at a temperature of 37° C. for 1 day and the mushroom was kept in a thermostat for […] at a temperature of 28° C. in the. Then results were checked.

Pseudomonas aeruginosa = test: Antimicrobial testing by agar dilution, Pseudomonas aeruginosa; conditions: Ps. Aeroqonaza
Procedure: as §1

Staphylococcus aureus = test: Antimicrobial testing by agar dilution, Staphylococcus aureus; conditions: St. Aereus
Procedure: as §1

Candida albicans = test: Antimicrobial testing by agar dilution, Candida albicans
Procedure: as §1

[1] = dilution rate 1:100, exposure time 10 min
[2] = dilution rate 1:100, exposure time 20 min
[3] = dilution rate 1:100, exposure time 40 min
[4] = dilution rate 1:100, exposure time 60 min
[5] = dilution rate 1:200, exposure time 10 min
[6] = dilution rate 1:200, exposure time 20 min
[7] = dilution rate 1:200, exposure time 40 min
[8] = dilution rate 1:200, exposure time 60 min
[9] = dilution rate 1:400, exposure time 10 min
[10] = dilution rate 1:400, exposure time 20 min
[11] = dilution rate 1:400, exposure time 40 min
[12] = dilution rate 1:400, exposure time 60 min
[13] = dilution rate 1:800, exposure time 10 min
[14] = dilution rate 1:800, exposure time 20 min
[15] = dilution rate 1:800, exposure time 40 min
[16] = dilution rate 1:800, exposure time 60 min

## NC(=O)N/N=C/c1ccc([N+](=O)[O-])o1 [Furacilin]
Escherichia coli; [1]
  antimicrobial activity (+/−): −
Escherichia coli; [2]
  antimicrobial activity (+/−): −
Escherichia coli; [3]
  antimicrobial activity (+/−): −
Escherichia coli; [4]
  antimicrobial activity (+/−): −
Escherichia coli; [5]
  antimicrobial activity (+/−): +
Escherichia coli; [6]
  antimicrobial activity (+/−): +
Escherichia coli; [7]
  antimicrobial activity (+/−): +
Escherichia coli; [8]
  antimicrobial activity (+/−): +
Escherichia coli; [9]
  antimicrobial activity (+/−): +
Escherichia coli; [10]
  antimicrobial activity (+/−): +
Escherichia coli; [11]
  antimicrobial activity (+/−): +
Escherichia coli; [12]
  antimicrobial activity (+/−): +
Escherichia coli; [13]
  antimicrobial activity (+/−): +
Escherichia coli; [14]
  antimicrobial activity (+/−): +
Escherichia coli; [15]
  antimicrobial activity (+/−): +
Escherichia coli; [16]
  antimicrobial activity (+/−): +
Pseudomonas aeruginosa; [1]
  antimicrobial activity (+/−): +
Pseudomonas aeruginosa; [2]
  antimicrobial activity (+/−): +
Pseudomonas aeruginosa; [3]
  antimicrobial activity (+/−): +
Pseudomonas aeruginosa; [4]
  antimicrobial activity (+/−): +
Pseudomonas aeruginosa; [5]
  antimicrobial activity (+/−): +
Pseudomonas aeruginosa; [6]
  antimicrobial activity (+/−): +
Pseudomonas aeruginosa; [7]
  antimicrobial activity (+/−): +
Pseudomonas aeruginosa; [8]
  antimicrobial activity (+/−): +
Pseudomonas aeruginosa; [9]
  antimicrobial activity (+/−): +
Pseudomonas aeruginosa; [10]
  antimicrobial activity (+/−): +
Pseudomonas aeruginosa; [11]
  antimicrobial activity (+/−): +
Pseudomonas aeruginosa; [12]
  antimicrobial activity (+/−): +
Pseudomonas aeruginosa; [13]
  antimicrobial activity (+/−): +
Pseudomonas aeruginosa; [14]
  antimicrobial activity (+/−): +
Pseudomonas aeruginosa; [15]
  antimicrobial activity (+/−): +
Pseudomonas aeruginosa; [16]
  antimicrobial activity (+/−): +
Staphylococcus aureus; [1]
  antimicrobial activity (+/−): −
Staphylococcus aureus; [2]
  antimicrobial activity (+/−): −
Staphylococcus aureus; [3]
  antimicrobial activity (+/−): −
Staphylococcus aureus; [4]
  antimicrobial activity (+/−): −
Staphylococcus aureus; [5]
  antimicrobial activity (+/−): +
Staphylococcus aureus; [6]
  antimicrobial activity (+/−): +
Staphylococcus aureus; [7]
  antimicrobial activity (+/−): +
Staphylococcus aureus; [8]
  antimicrobial activity (+/−): +
Staphylococcus aureus; [9]
  antimicrobial activity (+/−): +
Staphylococcus aureus; [10]
  antimicrobial activity (+/−): +
Staphylococcus aureus; [11]
  antimicrobial activity (+/−): +
Staphylococcus aureus; [12]
  antimicrobial activity (+/−): +
Staphylococcus aureus; [13]
  antimicrobial activity (+/−): +
Staphylococcus aureus; [14]
  antimicrobial activity (+/−): +
Staphylococcus aureus; [15]
  antimicrobial activity (+/−): +
Staphylococcus aureus; [16]
  antimicrobial activity (+/−): +
Candida albicans; [1]
  antimicrobial activity (+/−): −
Candida albicans; [2]
  antimicrobial activity (+/−): −
Candida albicans; [3]
  antimicrobial activity (+/−): +
Candida albicans; [4]
  antimicrobial activity (+/−): +
Candida albicans; [5]
  antimicrobial activity (+/−): +
Candida albicans; [6]
  antimicrobial activity (+/−): +
Candida albicans; [7]
  antimicrobial activity (+/−): +
Candida albicans; [8]
  antimicrobial activity (+/−): +
Candida albicans; [9]
  antimicrobial activity (+/−): +
Candida albicans; [10]
  antimicrobial activity (+/−): +
Candida albicans; [11]
  antimicrobial activity (+/−): +
Candida albicans; [12]
  antimicrobial activity (+/−): +
Candida albicans; [13]
  antimicrobial activity (+/−): +
Candida albicans; [14]
  antimicrobial activity (+/−): +
Candida albicans; [15]
  antimicrobial activity (+/−): +
Candida albicans; [16]
  antimicrobial activity (+/−): +
